The results in this text go back to WO2019216345A1.

The target in the assay is T1, drebrin of wild-type mouse (cerebral cortex extract) (mouse) (UniProt Q9QXS6).
T1 sequence (looked up): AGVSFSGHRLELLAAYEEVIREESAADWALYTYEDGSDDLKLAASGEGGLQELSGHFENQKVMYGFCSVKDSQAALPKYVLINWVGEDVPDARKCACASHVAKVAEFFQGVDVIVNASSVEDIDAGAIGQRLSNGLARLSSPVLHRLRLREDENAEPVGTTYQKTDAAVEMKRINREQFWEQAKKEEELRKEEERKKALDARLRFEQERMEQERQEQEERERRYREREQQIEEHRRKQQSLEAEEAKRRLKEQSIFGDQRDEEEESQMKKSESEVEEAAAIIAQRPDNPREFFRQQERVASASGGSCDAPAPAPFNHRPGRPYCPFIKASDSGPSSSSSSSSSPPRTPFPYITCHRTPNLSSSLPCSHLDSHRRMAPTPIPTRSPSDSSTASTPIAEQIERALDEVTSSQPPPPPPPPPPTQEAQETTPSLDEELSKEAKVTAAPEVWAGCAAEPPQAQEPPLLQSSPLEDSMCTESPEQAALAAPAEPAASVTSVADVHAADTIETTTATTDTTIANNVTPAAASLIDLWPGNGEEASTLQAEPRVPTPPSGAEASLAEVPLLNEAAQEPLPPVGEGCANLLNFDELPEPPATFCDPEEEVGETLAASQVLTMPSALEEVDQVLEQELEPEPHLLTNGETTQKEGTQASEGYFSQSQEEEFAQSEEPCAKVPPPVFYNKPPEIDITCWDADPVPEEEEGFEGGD
Put plainly: Western blot, cerebral cortex extracts of wild-type and drebrin knockout mice; band at 140 kDa in WT only. Background: Immunoblotting shows a protein as a band on a membrane.

Results are given in words; binding and its absence hold for the method and conditions named. Some results given as binding are weak or reduced against the parent protein; the word gives no strength. Where a sequence is shown, tags or fusion partners need not be part of it.

B1: Drebrin-binding peptide-human IgG Fc fusion antibody in which #1 peptide is fused with the Fc region of human IgG antibody (#1Fc antibody) (Fc fusion, not shown: a dimerising Fc or GST)
chain: QVQLVESGGGLVRAGGSLRLSCAATGRTFSAYTMGWFRQAPGKEREFVAAVTRSSTSTYYAGSVKGRFTISRDNAKNMVYLQMNNLEPEDTAVYYCHARRPSTTGHWGQGTQVTVSSEPKTPKPQSA
For the molecule B1, the binding result is “binds”.
